Measured data: PubChem BioAssay AID686938 (Drosophila RNAi Screening Center, 2013)

Screen: 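Fly genes required for calcium entry once internal stores are emptied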 (primary screen)
Cell system: Drosophila S2R+ cells
Knock-down reagent: long dsRNA against Drosophila genes, about 0.25 µg dsRNA per well, roughly 10,000 cells
Time to read-out: 5 days of knock-down before the calcium assay
Treatment: thapsigargin (SERCA pump blocker) to empty calcium stores; entry signal taken 4 min after adding it
Measurement: 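Per-well fluo-4 fluorescence in two replicates, unnormalised, measured in resting cells and 4 min after store depletion by the SERCA blocker thapsigargin; ratio of the two present in few wells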
Direction: calcium entry signal: higher = stronger calcium signal after store depletion; resting calcium signal: higher = higher resting calcium signal
Hit rule: 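Called when the plate z-score of the entry-to-rest ratio, mean of duplicates, falls below −3; wells with low overall dye signal (Fmax z below −2) or more than five off-targets excluded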
Meaning of the calls: active = strongly reduced calcium entry; inactive = no strong reduction
In all, the deposit lists about 23,000 reagents; below is a random part of those with a known target gene and a result. Over the whole deposit, 75 (0.33%) got an active call. 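Raw plate signals without normalisation; calls rest on plate z-scores that were not deposited; ratio present for only 364 wells.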 Names joined by + are all predicted targets of the reagent. Not given: the dose of the treatment.

| target | DRSC id | calcium entry signal, replicate 1 (fluorescence units) | calcium entry signal, replicate 2 (fluorescence units) | resting calcium signal, replicate 1 (fluorescence units) | resting calcium signal, replicate 2 (fluorescence units) | activity call |
| --- | --- | --- | --- | --- | --- | --- |
| goe | DRSC19345 | 3.57e7 | 2.81e7 | 1.83e7 | 1.40e7 | inactive |
| TfIIB | DRSC03454 | 1.93e7 | 2.64e7 | 1.13e7 | 1.35e7 | inactive |
| Gem3 | DRSC11144 | 1.76e7 | 2.13e7 | 1.06e7 | 1.11e7 | inactive |
| CG6793 | DRSC10714 | 3.51e7 | 4.98e7 | 1.62e7 | 2.17e7 | inactive |
| ND-B12 | DRSC04060 | 4.14e7 | 5.57e7 | 2.09e7 | 2.26e7 | inactive |
| CG18343 | DRSC06726 | 1.66e7 | 3.42e7 | 9.22e6 | 1.44e7 | inactive |
| sNPF | DRSC02309 | 3.80e7 | 3.80e7 | 1.78e7 | 1.75e7 | inactive |
| CG33225 | DRSC03881 | 2.98e7 | 5.07e7 | 1.52e7 | 5.04e7 | inactive |
| CG9522 | DRSC20197 | 3.45e7 | 3.09e7 | 1.77e7 | 1.56e7 | inactive |
| CAH9 | DRSC15963 | 4.27e7 | 5.58e7 | 2.02e7 | 2.26e7 | inactive |
| CG13676 | DRSC10035 | 2.95e7 | 3.57e7 | 1.72e7 | 1.74e7 | inactive |
| CG14191 | DRSC19546 | 4.49e7 | 3.76e7 | 2.12e7 | 1.78e7 | inactive |
| Meltrin | DRSC16274 | 2.98e7 | 4.59e7 | 1.39e7 | 1.96e7 | inactive |
| Meltrin | DRSC21693 | 3.75e7 | 3.50e7 | 2.18e7 | 1.78e7 | inactive |
| Eig71Ef | DRSC11153 | 5.50e7 | 6.96e7 | 2.55e7 | 2.75e7 | inactive |
| RpL34b | DRSC16475 | 2.35e7 | 1.95e7 | 1.24e7 | 1.13e7 | inactive |
| CG6481 | DRSC19995 | 3.91e7 | 3.31e7 | 1.97e7 | 1.53e7 | inactive |
| CG18735 | DRSC04312 | 5.03e7 | 5.18e7 | 2.52e7 | 2.18e7 | inactive |
| r2d2 | DRSC03014 | 3.71e7 | 4.74e7 | 1.58e7 | 2.00e7 | inactive |
| Kdm5 | DRSC03133 | 4.17e7 | – | 2.37e7 | – | inactive |
| CG17601 | DRSC20639 | 5.09e7 | 4.84e7 | 2.37e7 | 1.95e7 | inactive |

Part of the list above, limited to “calcium entry signal, replicate 2 (fluorescence units)”:
Meltrin [DRSC21693]: 3.50e7
Eig71Ef [DRSC11153]: 6.96e7
RpL34b [DRSC16475]: 1.95e7
CG6481 [DRSC19995]: 3.31e7

Additional reagents:
| target | DRSC id | calcium entry signal, replicate 1 (fluorescence units) | calcium entry signal, replicate 2 (fluorescence units) | resting calcium signal, replicate 1 (fluorescence units) | resting calcium signal, replicate 2 (fluorescence units) | activity call |
| --- | --- | --- | --- | --- | --- | --- |
| CycB | DRSC04605 | 3.40e7 | – | 1.81e7 | – | inactive |
| lncRNA:CR40053 | DRSC20833 | 3.65e7 | 4.83e7 | 1.77e7 | 2.03e7 | inactive |
| dpr14 | DRSC17767 | 4.76e7 | 4.09e7 | 2.08e7 | 1.86e7 | inactive |
| CG13124 | DRSC02220 | 4.89e7 | – | 2.32e7 | – | inactive |
| CG33655 | DRSC03858 | 3.44e7 | 6.09e7 | 1.59e7 | 2.57e7 | inactive |
| jeb | DRSC06305 | 1.69e7 | 3.27e7 | 1.01e7 | 1.37e7 | inactive |
| jeb | DRSC06307 | 1.69e7 | 2.96e7 | 9.46e6 | 1.28e7 | inactive |
| Tina-1 | DRSC04317 | 2.44e7 | – | 1.28e7 | – | inactive |
| Doc1 | DRSC11146 | 3.84e7 | 3.87e7 | 1.65e7 | 1.71e7 | inactive |
| CG32112 | DRSC09815 | 2.15e7 | 4.01e7 | 1.20e7 | 1.76e7 | inactive |
| Impbeta11 + asRNA:CR43429 | DRSC07525 | 4.34e7 | 3.75e7 | 2.24e7 | 1.66e7 | inactive |
| lncRNA:yar | DRSC17679 | 3.52e7 | 5.58e7 | 2.09e7 | 2.83e7 | inactive |
| lncRNA:yar | DRSC21708 | 3.77e7 | 3.03e7 | 1.98e7 | 1.56e7 | inactive |
| Atg4b | DRSC15988 | 4.29e7 | 5.30e7 | 1.56e7 | 2.13e7 | inactive |
| CG2278 | DRSC18226 | 3.26e7 | 3.81e7 | 1.79e7 | 1.84e7 | inactive |
| Obp56a | DRSC06085 | 6.20e7 | 4.41e7 | 2.39e7 | 2.19e7 | inactive |
| RpL12 | DRSC04344 | 1.01e7 | 8.94e6 | 8.21e6 | 6.76e6 | inactive |
| CG15731 | DRSC19698 | 4.33e7 | 4.09e7 | 2.09e7 | 1.96e7 | inactive |
| CG15731 | DRSC21820 | 3.48e7 | 3.62e7 | 1.99e7 | 1.59e7 | inactive |
